Results deposited as PubChem BioAssay AID1671195 (Yale University, 2021)
Here is an unselected part of about 22,000 deposited reagents. Of all reagents, about 1,510 (6.9%) were called active. 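Active includes knockdowns raising or lowering LDL uptake; positive z-scores mean more uptake, negative mean less.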

Aim: 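Genes whose knockdown alters LDL uptake in liver cancer cells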 (primary screen)
System: human Huh7 hepatoma cells
Knock-down reagent: siRNA pool against human genes, 18 nM
Timing: about 2 to 2.5 days of knockdown, then 8 h LDL uptake
Treatment: DiI-labelled LDL at 30 µg/ml for 8 h, in lipoprotein-deficient serum medium
Measurement: 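Per-cell DiI-LDL intensity by automated imaging; well means scaled to the plate median and given as a robust z-score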
Scale: robust z-score: higher = more LDL uptake after knockdown
Hit rule: 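Active when two or more replicates show a robust z-score above 2 or below -2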

target gene	PubChem SID	robust z-score, replicate 1	robust z-score, replicate 2	robust z-score, replicate 3	outcome
ASAH2 (N-acylsphingosine amidohydrolase 2)	SID442901219	-0.87	-0.773	-0.963	inactive
SMARCC1 (SWI/SNF related BAF chromatin remodeling complex subunit C1)	SID442887722	1.15	0.137	1.27	inactive
MRPL13 (mitochondrial ribosomal protein L13)	SID442886489	-0.283	2.6	1.12	inactive
CCL16 (C-C motif chemokine ligand 16)	SID442888876	0.08	1.04	0.824	inactive
TAL2 (TAL bHLH transcription factor 2)	SID442896534	-0.0863	-0.329	-0.434	inactive
SYCP1 (synaptonemal complex protein 1)	SID442899845	-0.678	-0.492	-0.86	inactive
MAP3K19 (mitogen-activated protein kinase kinase kinase 19)	SID442901755	-0.623	-1.36	-0.87	inactive
EPYC (epiphycan)	SID442889474	2.06	-0.942	0.543	inactive
LOC441045 (retired record)	SID442891418	0.417	0.0106	0.438	inactive
LOC441916 (retired record)	SID442900239	-0.626	-0.773	-0.801	inactive
RPSA (ribosomal protein SA)	SID442890848	0.553	0.472	0.0638	inactive
PPP2R2A (protein phosphatase 2 regulatory subunit Balpha)	SID442903415	-1.27	-1.48	-1.13	inactive
MESP2 (mesoderm posterior bHLH transcription factor 2)	SID442889254	0.683	0.602	0.478	inactive
TUBB1 (tubulin beta 1 class VI)	SID442900020	-0.346	-0.993	-0.764	inactive
CALM3 (calmodulin 3)	SID442889133	1.33	0.323	0.17	inactive
ASH2L (ASH2 like, histone lysine methyltransferase complex subunit)	SID442890935	0.4	0.0903	0.564	inactive
IL32 (interleukin 32)	SID442903896	-1.45	-1.01	-1.81	inactive
LGALS16 (galectin 16)	SID442889705	0.0763	0.944	0.538	inactive
PRSS42P (serine protease 42, pseudogene)	SID442904772	-1.85	-1.76	-2.06	inactive
LOC399900	SID442899775	0.243	-1.23	-1.01	inactive
EIF3H (eukaryotic translation initiation factor 3 subunit H)	SID442888434	0.0829	2.11	-0.0348	inactive
KIAA1217	SID442893294	0.701	-0.53	0.027	inactive
TMEM151B (transmembrane protein 151B)	SID442895520	-0.113	-0.281	-0.139	inactive
ARL6IP5 (ARF like GTPase 6 interacting protein 5)	SID442895060	0.119	-0.322	-0.184	inactive
EXOSC6 (exosome component 6)	SID442883280	2.94	4.52	2.96	active
TLR10 (toll like receptor 10)	SID442899338	-0.369	-0.816	-0.633	inactive

Part of the list above, limited to “robust z-score, replicate 2”:
ASH2L (ASH2 like, histone lysine methyltransferase complex subunit) [SID442890935]	0.0903
IL32 (interleukin 32) [SID442903896]	-1.01
LGALS16 (galectin 16) [SID442889705]	0.944
PRSS42P (serine protease 42, pseudogene) [SID442904772]	-1.76
LOC399900 [SID442899775]	-1.23
EIF3H (eukaryotic translation initiation factor 3 subunit H) [SID442888434]	2.11

The listing continues.
target gene	PubChem SID	robust z-score, replicate 1	robust z-score, replicate 2	robust z-score, replicate 3	outcome
DPY19L3-DT (DPY19L3 divergent transcript)	SID442899987	-0.912	-0.442	-0.732	inactive
TMEM183A (transmembrane protein 183A)	SID442885869	1.89	1.03	1.1	inactive
TIAM2 (TIAM Rac1 associated GEF 2)	SID442896319	0.615	-0.887	-0.506	inactive
GGA2	SID442900946	-0.629	-1.14	-0.716	inactive
SMR3B (submaxillary gland androgen regulated protein 3B)	SID442885632	1.62	1.54	1.13	inactive
LOC389232 (retired record)	SID442901626	-1.15	-0.842	-0.796	inactive
COASY (Coenzyme A synthase)	SID442892982	-0.0612	-0.471	0.835	inactive
LOC388141 (retired record)	SID442885191	2.07	1.46	1.35	inactive
LOC158796 (retired record)	SID442902879	-1.44	-1.06	-0.999	inactive
HNMT (histamine N-methyltransferase)	SID442892712	-0.0469	0.0981	0.345	inactive
ATAD1 (ATPase family AAA domain containing 1)	SID442883588	2.32	2.5	3.03	active
ZNF717 (zinc finger protein 717)	SID442903547	-1.38	-1.13	-1.46	inactive
PARVA (parvin alpha)	SID442898318	0.0185	-0.424	-1.05	inactive
CPLX3 (complexin 3)	SID442895896	-0.328	0.165	-0.489	inactive
LOC285703 (retired record)	SID442903785	-1.48	-1.36	-1.32	inactive
MRPL48 (mitochondrial ribosomal protein L48)	SID442899063	-0.801	-0.563	-0.353	inactive
MIGA2 (mitoguardin 2)	SID442888012	0.797	0.912	0.681	inactive
INPP5A (inositol polyphosphate-5-phosphatase A)	SID442900916	-1.11	-0.552	-0.818	inactive
PIM3 (Pim-3 proto-oncogene, serine/threonine kinase)	SID442884603	3.87	1.45	3.77	inactive
CCDC83 (coiled-coil domain containing 83)	SID442897369	-0.301	-0.412	-0.423	inactive
